Assay results from US20200190135A1, “LASSO STRUCTURES AND THEIR SYNTHESIS” (ChromaCon AG, priority 2016, published 2020).
Not every detail of the peptide structures is certain; ends, links or a residue may be inferred. Some compounds share one wording; it may come from a single statement. Some entries share one result that the patent states for a list of compounds. Numbered stars: 1 amine (or outer) side, 2 acyl side, 3 side chain; on linkers, the order of the positions; unused ones are H or OH. Square brackets hold non-standard residues; d marks the D form. Peptide text beside a SMILES is read from it. * marks the point of attachment. ξ: configuration not given here. X3 = Cc1cc(C)cc(C(=O)NCCOCCN(CC(=O)[*:2])[*:1])c1; X1 = O=C(NCCOCCN(CC(=O)[*:2])[*:1])c1ccc(F)cc1; X2 = c1cc2c(cc1CCN*)OCCOCCOCCOCCOCCOCCO2; X5 = C1COCCOCCOCCN(*)CCOCCOCCOCCO1; X4 = C1COCCOCCOCC(N*)COCCOCCOCCO1; Thr(3ξ) = CC(O)[C@H](N)C(=O)O; GABA = NCCCC(=O)O; Cam = NC(=O)C*

How the values were obtained:
trypsin = assay: Proteolytic stability, incubation with trypsin; type: in vitro ADME; conditions: incubation for 24 h with trypsin (FIG. 13)
Experimental: Proteolytic stability of lasso compounds L1, L2, and L3 in comparison to their branched macrocyclic compounds B1, B2, and B3 and the cyclic peptide analogue C1 (see FIG. 11) was tested in separate experiments by incubation for 24 h with chymotrypsin (FIG. 12), trypsin (FIG. 13) and proteinase K (FIG. 14).

[1] = Thermal stability, heating to 95° C. for 8 h, monitored by HPLC; type: physicochemical

| Structure (SMILES) | stability versus trypsin degradation (trypsin) | de-threading on heating [1] |
| --- | --- | --- |
| Cc1cc(C)cc(C(=O)NCCOCCNCC(=O)N[C@@H](Cc2ccccc2)C(=O)NCC(=O)N[C@@H](CSCC(N)=O)C(=O)N[C@@H](Cc2ccccc2)C(=O)N[C@H](Cc2c[nH]c3ccccc23)C(=O)N[C@@H](CCCCN)C(=O)N[C@H](C(=O)N[C@@H](CC(C)C)C(=O)NCCCC(=O)NC2COCCOCCOCCOCCOCCOCCOC2)C(C)O)c1 (stereo partly drawn) [L2] (H-[X3]FGC(Cam)F[dW]K[Thr(3ξ)]L[GABA]-X4) | significantly greater stability | did not lead to any de-threading |
| Cc1cc(C)cc(C(=O)NCCOCCNCC(=O)N[C@@H](Cc2ccccc2)C(=O)NCC(=O)N[C@@H](CSCC(N)=O)C(=O)N[C@@H](Cc2ccccc2)C(=O)N[C@H](Cc2c[nH]c3ccccc23)C(=O)N[C@@H](CCCCN)C(=O)N[C@H](C(=O)N[C@@H](CC(C)C)C(=O)NCCCC(=O)N2CCOCCOCCOCCOCCOCCOCCOCC2)C(C)O)c1 (stereo partly drawn) [L3] (H-[X3]FGC(Cam)F[dW]K[Thr(3ξ)]L[GABA]-X5) | significantly greater stability | did not lead to any de-threading |
| CC(C)C[C@H](NC(=O)[C@@H](NC(=O)[C@H](CCCCN)NC(=O)[C@@H](Cc1c[nH]c2ccccc12)NC(=O)[C@H](Cc1ccccc1)NC(=O)[C@H](CSCC(N)=O)NC(=O)CNC(=O)[C@H](Cc1ccccc1)NC(=O)CNCCOCCNC(=O)c1ccc(F)cc1)[C@@H](C)O)C(=O)NCCCC(=O)NCCc1ccc2c(c1)OCCOCCOCCOCCOCCOCCO2 [L1] (H-[X1]FGC(Cam)F[dW]KTL[GABA]-X2) | significantly greater stability | did not lead to any de-threading |
